{"source": "PubChem BioAssay AID2685", "about": "(National Center for Advancing Translational Sciences (NCATS), 2010)", "note": "Among all 320,000 compounds or so, about 2,100 (0.66%) were called active. This list was built around the results that the source calls inconclusive (neither active nor inactive); the mix of calls is not that of the screen. Calls come from the whole dose curve; as a rule, active = well fitted inhibition curve with a large enough effect in the signal ratio, with a control signal flat (not every such curve was filed as active); inconclusive = small, poorly fitted or top-dose-only effect, or effect the other way, or a change in a side signal; inactive = flat fitted curve, though single readings scatter; the % refers to the signal ratio. Potencies of inconclusive entries are doubtful fits and often do not repeat. % is set by controls: 0 for no effect and ±100 for the full control effect; potency is the fitted concentration of half-maximal effect.", "data": [{"assay": "qHTS Assay for Lipid Storage Modulators in Drosophila S3 Cells", "conditions": "BODIPY lipid droplet fluorescence, 18-24 h, cells fed with added oleic acid; lipid storage change, negative = inhibition: at 46.1 µM (top of the series) unless noted", "how_it_was_run": "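Laser-scanning cytometry quantifies lipid droplet accumulation (500–530 nm total intensity; droplet/cell object ratio) in oleic acid-fed (400 uM added) Drosophila S3 cells treated with a concentration series. 20 uM Triacsin C defined 100% inhibition.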", "values": [{"molecule": "O=S(=O)(NC1=NCCC1)c1cccs1", "Potency": "inconclusive: 0.13 µM [falling, full curve]"}, {"molecule": "COc1ccccc1CC(=O)N1CCN(c2cccc(C(F)(F)F)c2)CC1", "Potency": "inconclusive: 29.1 µM [falling, single point]"}, {"molecule": "COc1cccc(C=Nc2ccc3c(c2)CCC3)c1O", "Potency": "inconclusive: 29.1 µM [falling, single point]"}, {"molecule": "O=C1N/C(=N/N=C/c2ccc(F)cc2)SC1c1ccccc1", "note": "(stereo unspecified)", "lipid storage change, negative = inhibition": "inconclusive: 15.3%"}, {"molecule": "CCCCN(C)CCNC(=O)c1nn(-c2ccc(OC)cc2)c(=O)c2c1c1ccccc1n2C", "lipid storage change, negative = inhibition": "inconclusive: 2.16%"}, {"molecule": "CN(CC(=O)Nc1c(Cl)cccc1Cl)C(=O)CC1Sc2ccccc2NC1=O", "note": "(stereo unspecified)", "lipid storage change, negative = inhibition": "inconclusive"}, {"molecule": "CCCCC1CCC(C(=O)N(C)CC(=O)Nc2cccc(OC)c2)CC1", "note": "(stereo unspecified)", "lipid storage change, negative = inhibition": "inactive"}, {"molecule": "CC(=O)n1cc([C@H]2C=C(C(=O)NCc3ccccc3)O[C@@H](OCc3ccc(CO)cc3)C2)c2ccccc21", "Potency": "inconclusive: 0.13 µM [falling, full curve, poor fit]"}, {"molecule": "CCOc1cc(/C=N/NC(=O)c2ccc(NC(=O)C3CC3)cc2)ccc1O", "lipid storage change, negative = inhibition": "inconclusive: 21.1%"}, {"molecule": "CCOc1ccc(-c2c(C(=O)N/N=C/c3c[nH]c4ccccc34)nnn2-c2nonc2N)cc1", "Potency": "inconclusive: 0.651 µM [falling, partial curve, poor fit]"}, {"molecule": "Cc1cc([N+](=O)[O-])nn1CC(=O)N1N=C(C(F)F)CC1(O)C(F)F", "note": "(stereo unspecified)", "lipid storage change, negative = inhibition": "inconclusive: 4.11%"}, {"molecule": "NC(N)=NCCCC(NC(=O)c1ccccc1)C(=O)Nc1ccc2ccccc2c1", "note": "(stereo unspecified)", "lipid storage change, negative = inhibition": "inconclusive: 6.25%"}, {"molecule": "COc1ccccc1-c1cc(C(=O)NCc2ccccc2)no1", "Potency": "inconclusive: 2.59 µM [falling, partial curve, poor fit]"}, {"molecule": "O=C(c1ccccc1F)N1CCN(Cc2nc3sc4c(c3c(=O)[nH]2)CCCC4)CC1", "lipid storage change, negative = inhibition": "inconclusive: -3.49%"}, {"molecule": "COc1ccc(F)cc1S(=O)(=O)N1CCC2(CC1)OCCN2S(=O)(=O)c1ccccc1", "Potency": "inconclusive: 0.517 µM [activator, full curve]"}, {"molecule": "CC(=O)N/N=C/c1ccccc1OCCOc1cccc(C)c1", "lipid storage change, negative = inhibition": "inconclusive: -3.67%"}, {"molecule": "O=C(O)Cc1sc(N/N=C\\c2ccncc2)nc1-c1ccccc1", "Potency": "inconclusive: 29.1 µM [falling, single point]"}, {"molecule": "CCNC(=O)NC(=O)CSc1nc2ccccc2n1CC(C)C", "lipid storage change, negative = inhibition": "inconclusive: -94%"}, {"molecule": "CN(C(=O)COC(=O)c1c[nH]c(=O)[nH]c1=O)C1CCCCC1", "lipid storage change, negative = inhibition": "inconclusive: 17.9%"}, {"molecule": "O=S(=O)(NCc1nnc2ccccn12)c1ccc(F)cc1", "lipid storage change, negative = inhibition": "inconclusive"}, {"molecule": "O=Cc1ccc(OCC(=O)NC(=O)NC2CCCCC2)cc1", "lipid storage change, negative = inhibition": "inconclusive: 20.9%"}, {"molecule": "O=S(=O)(c1ccc(Cl)cc1)n1ccc2cccnc21", "lipid storage change, negative = inhibition": "inconclusive: -6.68%"}, {"molecule": "CCc1nnc(NC(=O)CSc2nccn2-c2cc(C)cc(C)c2)s1", "Potency": "inconclusive: 29.1 µM [cytotoxic, single point]"}, {"molecule": "CCC1(C)Cc2ccccc2-c2c1c(=O)n(Cc1ccccc1)c1nnnn21", "note": "(stereo unspecified)", "lipid storage change, negative = inhibition": "inconclusive: 22.7%"}, {"molecule": "O=[N+]([O-])c1ccc(O)c(/C=N/Nc2nn[nH]n2)c1", "lipid storage change, negative = inhibition": "inconclusive: -19.9%"}, {"molecule": "CCOc1ccc(C2C(C#N)=C(N)Oc3cc(O)ccc32)cc1OCC", "note": "(stereo unspecified)", "lipid storage change, negative = inhibition": "inconclusive: 54.1%"}, {"molecule": "Cc1cc(C)n(CCc2nc(-c3cc4ccccc4o3)cs2)n1", "lipid storage change, negative = inhibition": "inconclusive: -12.5%"}, {"molecule": "O=C1C(Cc2c[nH]c3ccccc23)NC(=S)N1C1CCCCC1", "note": "(stereo unspecified)", "lipid storage change, negative = inhibition": "inconclusive: -16.4%"}, {"molecule": "N#C/C(=C\\c1cccnc1)C(=O)Nc1cccc2ccccc12", "Potency": "inconclusive: 11.6 µM [falling, partial curve]"}, {"molecule": "c1ccc(CN2CCN(c3nc(-c4ccccn4)nc4ccccc34)CC2)cc1", "Potency": "inconclusive: 0.92 µM [activator, partial curve, poor fit]"}, {"molecule": "CN(C)c1ccc(NS(=O)(=O)c2cccc(Cl)c2)cc1", "lipid storage change, negative = inhibition": "inconclusive: 11%"}, {"molecule": "CCCOc1ccc(C(=O)Nc2ccc(C)cc2[N+](=O)[O-])cc1", "lipid storage change, negative = inhibition": "inconclusive: -12.7%"}, {"molecule": "CCN(CC)C(=O)c1[nH]cnc1C(=O)Nc1ccccc1", "lipid storage change, negative = inhibition": "inconclusive: 10.7%"}, {"molecule": "Cc1nnc(-c2cccc(Br)c2)c2cn(-c3ccccc3Cl)nc12", "lipid storage change, negative = inhibition": "inconclusive: -24.5%"}, {"molecule": "COc1ccc([C@@H]2[C@@H]3C(=O)N(C(C)(C)C)C(=O)[C@@H]3[C@]3(C)C(=O)N(c4cccc(Cl)c4)C(=O)N23)cc1", "lipid storage change, negative = inhibition": "inconclusive: 14.5%"}, {"molecule": "Cn1c(=O)[nH]c(=O)c2c1nc(SCCO)n2CC(O)COc1ccccc1", "note": "(stereo unspecified)", "lipid storage change, negative = inhibition": "inconclusive: 13.4%"}, {"molecule": "COc1cccc(C2C(C#N)=C(N)Oc3cc(N)ccc32)c1OC", "note": "(stereo unspecified)", "lipid storage change, negative = inhibition": "inconclusive: -2.36%"}, {"molecule": "O=C(NCC(=O)N1CCOCC1)c1ccccc1", "Potency": "inconclusive: 20.6 µM [falling, partial curve, poor fit]"}, {"molecule": "O=C1/C(=C/c2ccccc2)Oc2cc(OC(=O)N3CCOCC3)ccc21", "lipid storage change, negative = inhibition": "inconclusive: -96%"}, {"molecule": "O=C(Cc1csc(-c2ccc(Cl)cc2)n1)Nc1cccc(S(=O)(=O)NC2=NCCC2)c1", "lipid storage change, negative = inhibition": "inconclusive: 18.3%"}, {"molecule": "Cc1ccc(NC(=O)CN(C)C(=O)c2ccc(OCc3c(C)noc3C)cc2)cc1", "Potency": "inconclusive: 3.66 µM [falling, full curve, poor fit]"}, {"molecule": "CC1(C)Cc2c(sc3c2c(=N)n(Cc2ccco2)c(=O)n3CC(=O)Nc2ccc(Cl)cc2)CO1", "Potency": "inconclusive: 9.2 µM [activator, partial curve]"}, {"molecule": "COc1cc(OC)cc(C(=O)Nc2cccc3nc(C)ccc23)c1", "Potency": "inconclusive: 0.13 µM [activator, full curve, poor fit]"}, {"molecule": "Cc1cccc(NC(=S)N2CCCCC2)c1", "lipid storage change, negative = inhibition": "inconclusive: 18.4%"}, {"molecule": "Cc1ccc(S(=O)(=O)N(CC(=O)NCCSc2ccccn2)c2cc(C)cc(C)c2)cc1", "lipid storage change, negative = inhibition": "inactive"}, {"molecule": "Cc1ccc(CC(=O)Nc2ccc(OC(F)F)c(Cl)c2)cc1C", "lipid storage change, negative = inhibition": "inconclusive: -8.58%"}, {"molecule": "CCC(C)c1ccc(S(=O)(=O)N2CCN(CC(O)COCC3CCCO3)CC2)cc1", "note": "(stereo unspecified)", "lipid storage change, negative = inhibition": "inconclusive"}, {"molecule": "NC(=O)CC(NC(=O)Cc1ccc(Cl)cc1)c1ccc(NC2CCCCCCC2)c([N+](=O)[O-])c1", "note": "(stereo unspecified)", "Potency": "inconclusive: 2.31 µM [falling, single point]"}, {"molecule": "CCN(CC(=O)Nc1ccc(NC(C)=O)cc1)C(=O)COc1ccccc1Cc1ccccc1", "Potency": "inconclusive: 18.4 µM [activator, partial curve]"}, {"molecule": "COCCNC(=O)/C(C#N)=C/c1c(N2CC(C)OC(C)C2)nc2ccccn2c1=O", "note": "(stereo unspecified)", "lipid storage change, negative = inhibition": "inconclusive: 18%"}, {"molecule": "CCOC(=O)c1cnc2c(C)c(Cl)ccc2c1Nc1ccc(S(=O)(=O)Nc2ncccn2)cc1", "lipid storage change, negative = inhibition": "inconclusive: -9.84%"}, {"molecule": "CCN(CC)c1ccc(NC(=O)CCc2nnc3ccc(N4CCCC4)nn23)c(C)c1", "Potency": "inconclusive: 29.1 µM [activator, single point]"}, {"molecule": "Cc1ccc(C(CC(=O)O)NC(=O)c2ccc(S(=O)(=O)N3CCCC3)cc2)cc1", "note": "(stereo unspecified)", "lipid storage change, negative = inhibition": "inconclusive"}, {"molecule": "CCCCc1cc(=O)oc2cc(OS(C)(=O)=O)ccc12", "lipid storage change, negative = inhibition": "inconclusive: 6.45%"}, {"molecule": "Cc1ccc(-c2c(C)sc(NC(=O)C3C4CCC(O4)C3C(=O)O)c2C(=O)OC(C)C)cc1", "note": "(stereo unspecified)", "lipid storage change, negative = inhibition": "inconclusive: -17.9%"}, {"molecule": "COc1ccc(NC(=O)CN(C)CC(=O)NCc2ccc(C)cc2)cc1", "lipid storage change, negative = inhibition": "inconclusive: -20%"}, {"molecule": "COc1cc(C)nc(NC(=O)NC(=O)c2ccc(C(F)(F)F)cc2)n1", "lipid storage change, negative = inhibition": "inconclusive: -33.5%"}, {"molecule": "NS(=O)(=O)c1ccc(CCNC(=O)CCc2nc3sc4c(c3c(=O)[nH]2)CCCC4)cc1", "lipid storage change, negative = inhibition": "inconclusive"}, {"molecule": "CC1CCN(C(=O)CSc2nnc3c(n2)[nH]c2ccccc23)CC1", "lipid storage change, negative = inhibition": "inconclusive: 263%"}, {"molecule": "CCc1ccccc1N(C1=NCCCS1)S(=O)(=O)c1ccc(C(C)(C)C)cc1", "lipid storage change, negative = inhibition": "inconclusive: 0.519%"}, {"molecule": "COc1ccc(-c2ccc(CCC(=O)O)n2CC(=O)Nc2ccccc2C)cc1", "lipid storage change, negative = inhibition": "inconclusive: 14.3%"}, {"molecule": "Cc1ccc(/C=N/Nc2ccc(C(=O)O)cc2)s1", "lipid storage change, negative = inhibition": "inconclusive: -9.2%"}, {"molecule": "CCOC(=O)Nc1ccccc1N1C(=O)c2ccccc2C1=O", "Potency": "inconclusive: 25.9 µM [falling, single point]"}, {"molecule": "CCCCc1cc(=O)oc2c(C)c(OCC(=O)N3C[C@H]4C[C@@H](C3)c3cccc(=O)n3C4)ccc12", "lipid storage change, negative = inhibition": "inconclusive: 6.86%"}, {"molecule": "O=C1c2ccccc2C(=O)N1C1CCCCC1", "lipid storage change, negative = inhibition": "inconclusive: -25.4%"}, {"molecule": "Cc1ccccc1NC(=O)CN1C(=O)S/C(=C\\c2ccc(-c3cc(C(=O)O)ccc3C)o2)C1=O", "Potency": "inconclusive: 0.82 µM [falling, full curve]"}, {"molecule": "COc1ccc(C(=O)NCC(=O)N2CCCCC2)cc1OC", "lipid storage change, negative = inhibition": "inconclusive: -6.94%"}, {"molecule": "O=C(O[C@@H](C(=O)O)[C@@H](OC(=O)c1ccccc1)C(=O)O)c1ccccc1", "lipid storage change, negative = inhibition": "inconclusive: -1.23%"}, {"molecule": "COc1ccccc1N(CC(=O)N/N=C(\\C)c1ccccc1O)S(=O)(=O)c1ccc(C)cc1", "Potency": "inconclusive: 6.51 µM [falling, single point]"}, {"molecule": "CN(C)/C(=N\\S(=O)(=O)c1ccccc1)c1ccccc1", "lipid storage change, negative = inhibition": "inconclusive: -20.7%"}, {"molecule": "Cc1ccc(C(=O)n2cnc3ccccc32)cc1C", "Potency": "inconclusive: 0.58 µM [activator, single point]"}, {"molecule": "Cc1onc(-c2ccccc2Cl)c1C(=O)N1CCCCCC1", "Potency": "active: 25.9 µM"}, {"molecule": "Fc1ccc(/C=N/N2CCOCC2)c(F)c1", "Potency": "inconclusive: 29.1 µM [rising, single point]"}, {"molecule": "Cc1c(C(=O)NCCSCc2ccco2)cccc1[N+](=O)[O-]", "lipid storage change, negative = inhibition": "inconclusive: 66.3%"}, {"molecule": "O=C(NC(=S)Nc1ccc(CN2CCOCC2)cc1)c1ccc(-c2cccc(Cl)c2)o1", "lipid storage change, negative = inhibition": "inconclusive: 0.717%"}, {"molecule": "CCCCC(=O)Nc1ccc2c(c1)nc1n2CCSC1", "Potency": "inconclusive: 6.51 µM [activator, single point]"}]}]}
